Test results: PubChem BioAssay AID1508600 (Functional Genomics Laboratory (NCATS/FGL), 2020)
Out of some 53,000 sequences screened, about 3,700 (7%) were called active.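 The calls were made as follows: active = gene knockdowns whose robust z-score for IL-1 alpha signal is at least 2 or at most -2, so actives lie on both sides; inactive = the rest.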 The list shows a part of the results.

Assay: Components of the Cytosolic LPS Sensing Pathway: Gene Identification via Genome-wide siRNA Screen;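 also: robust z of the log signal after scaling to non-targeting control siRNA wells of the plate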
Conditions: RAW264.7 macrophages, IL-1a HTRF, actives lie on both sides, screened at 100 nM (by protocol), cells primed 5 h with Pam3CSK4 first
In short: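 Supernatant IL-1a by HTRF from RAW264.7 cells primed with Pam3CSK4 (5 hours) and transfected with LipidA (24 hour) after 48h siRNA knockdown at 100 nM; cell viability checked with CellTiter-Glo.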

| Sequence | z-score |
| --- | --- |
| CCACUUCUACCAUCAUUGATT against AU040320 | inactive: -0.659 |
| CGUGUGGACUUGACAAGAUTT against Cklf | inactive: -1.34 |
| GCCAGACCAAACCCGAAUUTT against Fbl | inactive: -0.543 |
| CCAGGUUUUUUAACAGAGATT against Hipk1 | inactive: -0.212 |
| CUUGUGGGUCUAUGGACGGTT against Olfr1348 | inactive: -0.195 |
| GGAUCUUUUCCAAAGAAAUTT against Dusp10 | inactive: -0.409 |
| GGAUCGUAGCUACAGCCAATT against Ldlrap1 | inactive: -0.397 |
| GGACACCAUGGAAGACUCUTT against Krtap6-5 | inactive: -0.999 |
| GGAAGACUUGAUAGAUGAATT against C4b | inactive: 0.598 |
| GGAGGUGGAUCAAAUGGCATT against Gnrh1 | inactive: -0.667 |
| GGACAAAGCUAUGUCUUAATT against Treh | inactive: 0.57 |
| GGACAGGCUUACUUCCUGATT against Vwa5b2 | inactive: 0.127 |
| CCUCUCCCUACUGUGAAAUTT against Poldip2 | inactive: 1.18 |
| GGCAAAGUUGCCAGAUGAATT against Mettl23 | active: 2.42 |
| GGCCCUAGUUACAACAAAATT against Vmn1r76 | inactive: -1.13 |
| CCUUUUUUAUAUCCACUCATT against Bahcc1 | inactive: 1.22 |
| GGCCUAGCUGUAUGUUUAGTT against Tex19.1 | inactive: 1.29 |
| CGAAUACUUUGGAAAAUUCTT against Tfb2m | inactive: -0.187 |
| CCCAACUCAAGCCUCGAAATT against Scpep1 | inactive: -0.257 |
| GCAAUGCAAAAGAUGCCCUTT against Chchd7 | inactive: 0.0804 |
| GGCCAAGAGUAAACAGAAATT against Traip | inactive: -1.03 |
| GGAAACAACUUUUUGCUUUTT against Zfp704 | inactive: 1.43 |
| GGGCUUGUAUCUACCAUGGTT against Strbp | active: 2.18 |

| Sequence | z-score |
| --- | --- |
| GGGCUGGUCAUUUACUAAGTT against Cdh22 | inactive: 1.32 |
| GGAUAAGUCACAGGUCACUTT against Jsrp1 | inactive: -1.45 |
| GGUUGUGAGUCAGUCUAGUTT against Tia1 | inactive: -1.55 |
| GGGCACACCCAUGAAGACATT against Hnf1a | active: 4.58 |
| GGCAGGAUAUGUAUUCUGATT against Tmem121b | inactive: 1.15 |
| CCCACAACUGCAAAUUGUGTT against Olfr782 | inactive: -1.21 |
| GGGAUAAUUGUUUCUGAUUTT against Ttc26 | inactive: 0.319 |
| GGCUCCUGAUUGAACAAAATT against Plod1 | inactive: 1.14 |
| CCUCUGUGACCUUUCAUGATT against Dhrsx | inactive: -1.09 |
| GGUGAACCUGGAAGAACUATT against Manea | inactive: 1.64 |
| GGCACAGAAAAAGAAAAUUTT against Usp3 | inactive: -0.624 |
| GGUAUCUCAGUCACGAAGATT against Rora | inactive: 0.554 |
| GGCCUUAUCGGCAGAUAUUTT against Tmem44 | inactive: -1.24 |
| GGGAUGAACGAAAUCAGUCTT against Myo5a | inactive: 0.998 |
| GCCUAAUCCCUUAAUCUACTT against Oas1g | inactive: -1.08 |
| GGCAAAUCAAGAGUAUUUUTT against C87436 | inactive: -0.0212 |
| CCAUAAGAGGCUUACCAAATT against Ndrg3 | inactive: 0.0348 |
| GCCCAUUUUUUUAGAUAUCTT against Rbl1 | inactive: -1.05 |
| GGCAUCUUUCAGUUUAUAUTT against Spic | inactive: 0.0586 |
| GGCUGAACUGGGAAAGCAATT against Krtap19-4 | inactive: -0.998 |
| GGUGCUAGUGGAUCAAACGTT against Mpv17l2 | inactive: -0.766 |
| GGAAUCUUUUAUAAACACCTT against Abcc12 | inactive: -0.0332 |
| CCCUAUGAGCAAAUCACAUTT against Ppp3cc | inactive: -0.499 |

Looked up above.
In z-score, GGGAUAAUUGUUUCUGAUUTT against Ttc26 reads inactive: 0.319
In z-score, GGGCUGGUCAUUUACUAAGTT against Cdh22 reads inactive: 1.32
In z-score, GGUAUCUCAGUCACGAAGATT against Rora reads inactive: 0.554
In z-score, GCCUAAUCCCUUAAUCUACTT against Oas1g reads inactive: -1.08

Remaining list, next part:

| Sequence | z-score |
| --- | --- |
| GGUGCUUAGAGUCAAGAAUTT against Tmem88 | inactive: -0.95 |
| GGGACACAUGGAGAUACUGTT against Ankrd2 | inactive: 0.23 |
| GGAAAGAUGAGGAAUGUUCTT against Tbx5 | inactive: -1.75 |
| GCGACAACUGUGAUAUACCTT against Liph | inactive: -0.485 |
| GGCACCAGGUAAAGCAGUATT against Mitf | inactive: 0.248 |
| GCGAAGACGGAAGCAUAUUTT against Emc8 | inactive: 0.12 |
| CCGACUAAUGCUAAAUCCATT against Pcgf1 | inactive: 0.897 |
| GCUGGGUCAUUUAACAAGCTT against Errfi1 | inactive: 0.499 |
| GCAUUCAAUCUGCAGAGGGTT against Olfr888 | active: -2.48 |
| GGACCAAGGAUCUUGACCUTT against Rax | inactive: -0.232 |
| GGCUAUCGAUGAGAAAAGUTT against Ecm2 | inactive: -1.21 |
| CCAACUCGUUAUCACUAUATT against Tmigd3 | inactive: 0.89 |
| CCGAUAGAUCUUAUUCUCATT against Vmn1r218 | inactive: 0.244 |
| GGCCAACACCUUUGAUGGATT against Abtb1 | inactive: 0.552 |
| GGAGGUCGUAUUGCGCUAUTT against Sh2b3 | inactive: -0.206 |
| GGAGUUUGUAAGGUCAUGUTT against Galt | inactive: -0.431 |
| GGGAAUCCUAGACAUGCUGTT against Nphp4 | inactive: -1.91 |
| CCUACAGCAACCAUAAGGATT against Plch2 | inactive: -1.6 |
| UGGAGCUAGCAAUACAGCGTT against Pramel26 | inactive: -1.35 |
| UGCAAAAAACGGAACAAUCTT against Gzmd | inactive: 0.198 |
| GCGAGAACAGCAAUAGUUCTT against Spag4 | inactive: 1.32 |
| GGCCAUCAUGAUUGGCGAUTT against Lhpp | inactive: 0.521 |
| GGUAAAACAGGUAUGUCGCTT against Ramac | inactive: 0.48 |
